For 1 molecule, binding results are on record in article PMC11827888.

Amino acid sequences for entries named in this document (tags omitted).
UniProt P06730: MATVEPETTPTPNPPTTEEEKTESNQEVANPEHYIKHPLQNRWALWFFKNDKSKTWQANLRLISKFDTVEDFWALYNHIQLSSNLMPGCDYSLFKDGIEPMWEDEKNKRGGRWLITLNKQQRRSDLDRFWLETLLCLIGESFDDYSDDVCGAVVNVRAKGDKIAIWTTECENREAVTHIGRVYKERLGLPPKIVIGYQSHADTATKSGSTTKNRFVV

Test [1] concerns the target eIF4E (human (endogenous in CRC, EC and PDAC cell lines)) (UniProt P06730). Nature of the test: co-IP; eIF4E immunoprecipitated with anti-eIF4E antibody (sc-271480) and Protein G PLUS-Agarose from cell lysates (50 mM Tris-HCl pH 7.5, 150 mM NaCl, 1 mM EDTA, 1% IGEPAL, 10% glycerol), 4°C; cells treated with vehicle or 20 uM DT-061 for 3 h; immunoblot. For orientation: In western blotting, separated proteins are transferred to a membrane and probed.

For test [2] the target is unchanged. Nature of the test: pull-down; cap affinity assay: m7GTP-agarose beads capture eIF4E and eIF4E-associated proteins from cell lysates (50 mM Tris pH 7.4, 100 mM NaCl, 1 mM EDTA, 1% Triton X-100), overnight at 4°C, 4 washes; cells treated with vehicle or 20 uM DT-061 for 3 h; immunoblot.

These are yes or no findings as the source states them, for the method shown. In cells and extracts the contact can be indirect. Some results given as binding are weak or reduced against the parent protein; the word gives no strength.

B1: eIF4E-binding protein 2 (4E-BP2) (protein, UniProt Q13542 1-120)
chain: MSSSAGSGHQPSQSRAIPTRTVAISDAAQLPHDYCTTPGGTLFSTTPGGTRIIYDRKFLLDRRNSPMAQTPPCHLPNIPGVTSPGTLIEDSKVEVNNLNNLNNHDRKHAVGDDAQFEMDI
B1: the binding entry in test [1] and in test [2] was “binds” each time.
